PubChem BioAssay AID1508597 – Cure First, 2020
This is a random part of the about 2,100 reagents, in one setting of the screen. 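Calls flag viability under 80% in either arm, not effects specific to rucaparib; the reference for percent is not stated.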 Unmarked entries are inactive. Not stated in the record: the 100% reference.

Aim: 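Knock-downs altering ovarian cancer cell survival with or without PARP inhibitor rucaparib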 (primary screen)
System: human ovarian carcinoma lines grown from tumours: OCI-P5x (papillary serous) and OCI-C5x (clear cell)
Reagents: siRNA pool against human genes, 1.25 pmol siRNA per well
Timing: 72 h or 96 h, depending on the cell culture
Treatment: rucaparib 20 µM (about IC30) or vehicle, present until read-out
Rucaparib or vehicle: Rucaparib
Cell line: OCI-C5x (clear cell)
Read-out: 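ATP luminescence measured at 72 or 96 h according to the culture, then normalised and expressed as percent viability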
Reading the numbers: viability, normalised: higher = more viable cells remaining
Active means: 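a well counts as a hit if its normalised viability is under 80 percent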
Meaning of the calls: active = viability under 80%; inactive = viability 80% or more

The opening 2 entries, to show the layout:
RAD51AP1 [SID405528457], technical replicate 1
- viability, normalised (%): 80.6

RAD51AP1 [SID405528457], technical replicate 2
- viability, normalised (%): 62.1 (active)

Results, repeating the preview:
RAD51AP1 [SID405528457], technical replicate 1
- viability, normalised (%): 80.6

RAD51AP1 [SID405528457], technical replicate 2
- viability, normalised (%): 62.1 (active)

RAD51AP1 [SID405528457], technical replicate 3
- viability, normalised (%): 62.4 (active)

RAC1 [SID405527221], technical replicate 1
- viability, normalised (%): 33 (active)

RAC1 [SID405527221], technical replicate 2
- viability, normalised (%): 30.8 (active)

RAC1 [SID405527221], technical replicate 3
- viability, normalised (%): 27.7 (active)

HMG20A [SID405526875], technical replicate 1
- viability, normalised (%): 61.3 (active)

HMG20A [SID405526875], technical replicate 2
- viability, normalised (%): 57.7 (active)

HMG20A [SID405526875], technical replicate 3
- viability, normalised (%): 69.7 (active)

TAF3 [SID405526525], technical replicate 1
- viability, normalised (%): 54.9 (active)

TAF3 [SID405526525], technical replicate 2
- viability, normalised (%): 53.8 (active)

TAF3 [SID405526525], technical replicate 3
- viability, normalised (%): 42 (active)

PIP4K2B [SID405527708], technical replicate 1
- viability, normalised (%): 54.8 (active)

PIP4K2B [SID405527708], technical replicate 2
- viability, normalised (%): 42.9 (active)

PIP4K2B [SID405527708], technical replicate 3
- viability, normalised (%): 61.5 (active)

KAT2B [SID405526925], technical replicate 1
- viability, normalised (%): 58.3 (active)

KAT2B [SID405526925], technical replicate 2
- viability, normalised (%): 41.5 (active)

KAT2B [SID405526925], technical replicate 3
- viability, normalised (%): 46.3 (active)

NEK11 [SID405527925], technical replicate 1
- viability, normalised (%): 47.9 (active)

NEK11 [SID405527925], technical replicate 2
- viability, normalised (%): 46.9 (active)

NEK11 [SID405527925], technical replicate 3
- viability, normalised (%): 50.5 (active)
